Compound in this assay: CC1Cc2ccccc2N1C(=O)C1CCCN(C1)C(=O)CCl (mixture of isomers) [TRIM25 ligand 11 (diastereomer mixture)]
Put plainly: probe-labelled cysteine peptide fold change vs DMSO (competition) (log2 fold change); higher = less target engagement (more negative = stronger competition). The following applies: THP-1, incubation time: 4 h.

Amino acid sequences for entries named in this document (tags omitted). A change or cut given only in a name is not applied to a line headed by its entry.
UniProt P16435: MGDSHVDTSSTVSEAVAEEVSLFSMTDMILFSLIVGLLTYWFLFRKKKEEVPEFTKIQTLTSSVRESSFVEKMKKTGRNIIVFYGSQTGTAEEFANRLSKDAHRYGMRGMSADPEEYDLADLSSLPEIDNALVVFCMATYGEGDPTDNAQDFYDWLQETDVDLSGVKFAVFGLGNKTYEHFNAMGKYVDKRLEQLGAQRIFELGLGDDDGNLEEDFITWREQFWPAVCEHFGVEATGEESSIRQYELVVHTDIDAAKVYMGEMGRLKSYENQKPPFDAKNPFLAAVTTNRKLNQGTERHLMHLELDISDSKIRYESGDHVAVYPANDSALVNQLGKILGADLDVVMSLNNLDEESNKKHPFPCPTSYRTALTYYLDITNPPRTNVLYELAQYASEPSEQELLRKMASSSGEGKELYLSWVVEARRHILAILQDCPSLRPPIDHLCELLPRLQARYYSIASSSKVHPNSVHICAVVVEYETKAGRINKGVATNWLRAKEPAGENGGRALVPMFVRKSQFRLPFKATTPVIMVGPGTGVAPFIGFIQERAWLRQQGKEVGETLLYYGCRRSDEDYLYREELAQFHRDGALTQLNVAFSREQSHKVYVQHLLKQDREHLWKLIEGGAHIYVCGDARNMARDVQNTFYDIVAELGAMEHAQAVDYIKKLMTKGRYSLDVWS
UniProt Q8TCS8: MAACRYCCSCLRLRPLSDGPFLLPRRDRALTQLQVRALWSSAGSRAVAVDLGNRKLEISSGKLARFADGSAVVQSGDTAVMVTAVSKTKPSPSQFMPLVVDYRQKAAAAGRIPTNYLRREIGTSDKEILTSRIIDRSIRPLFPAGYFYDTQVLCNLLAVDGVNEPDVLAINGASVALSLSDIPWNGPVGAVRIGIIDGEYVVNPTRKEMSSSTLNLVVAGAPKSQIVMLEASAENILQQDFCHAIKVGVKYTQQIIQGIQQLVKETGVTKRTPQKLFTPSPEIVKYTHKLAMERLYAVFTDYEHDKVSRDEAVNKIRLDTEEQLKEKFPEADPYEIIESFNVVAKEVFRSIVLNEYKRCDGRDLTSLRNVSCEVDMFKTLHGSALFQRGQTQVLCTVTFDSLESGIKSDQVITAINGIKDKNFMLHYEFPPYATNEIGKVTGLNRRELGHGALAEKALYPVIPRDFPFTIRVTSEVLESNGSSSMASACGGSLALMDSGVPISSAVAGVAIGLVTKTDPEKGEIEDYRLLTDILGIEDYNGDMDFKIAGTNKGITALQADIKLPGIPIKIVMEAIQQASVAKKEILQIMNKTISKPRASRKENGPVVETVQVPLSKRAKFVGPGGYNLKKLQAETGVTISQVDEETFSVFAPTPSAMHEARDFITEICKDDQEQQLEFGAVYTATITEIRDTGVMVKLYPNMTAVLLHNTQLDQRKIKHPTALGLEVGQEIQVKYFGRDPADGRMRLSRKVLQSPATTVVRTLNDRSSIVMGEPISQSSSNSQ
UniProt Q9UNP9: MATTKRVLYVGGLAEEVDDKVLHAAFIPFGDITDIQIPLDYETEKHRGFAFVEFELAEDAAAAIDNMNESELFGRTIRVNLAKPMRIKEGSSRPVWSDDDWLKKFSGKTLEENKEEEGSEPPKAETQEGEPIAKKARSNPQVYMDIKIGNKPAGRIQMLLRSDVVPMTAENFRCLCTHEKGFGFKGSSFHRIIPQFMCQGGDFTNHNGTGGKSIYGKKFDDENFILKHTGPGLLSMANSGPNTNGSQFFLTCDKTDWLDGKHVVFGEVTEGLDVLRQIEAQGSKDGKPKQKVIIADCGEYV
UniProt P28340: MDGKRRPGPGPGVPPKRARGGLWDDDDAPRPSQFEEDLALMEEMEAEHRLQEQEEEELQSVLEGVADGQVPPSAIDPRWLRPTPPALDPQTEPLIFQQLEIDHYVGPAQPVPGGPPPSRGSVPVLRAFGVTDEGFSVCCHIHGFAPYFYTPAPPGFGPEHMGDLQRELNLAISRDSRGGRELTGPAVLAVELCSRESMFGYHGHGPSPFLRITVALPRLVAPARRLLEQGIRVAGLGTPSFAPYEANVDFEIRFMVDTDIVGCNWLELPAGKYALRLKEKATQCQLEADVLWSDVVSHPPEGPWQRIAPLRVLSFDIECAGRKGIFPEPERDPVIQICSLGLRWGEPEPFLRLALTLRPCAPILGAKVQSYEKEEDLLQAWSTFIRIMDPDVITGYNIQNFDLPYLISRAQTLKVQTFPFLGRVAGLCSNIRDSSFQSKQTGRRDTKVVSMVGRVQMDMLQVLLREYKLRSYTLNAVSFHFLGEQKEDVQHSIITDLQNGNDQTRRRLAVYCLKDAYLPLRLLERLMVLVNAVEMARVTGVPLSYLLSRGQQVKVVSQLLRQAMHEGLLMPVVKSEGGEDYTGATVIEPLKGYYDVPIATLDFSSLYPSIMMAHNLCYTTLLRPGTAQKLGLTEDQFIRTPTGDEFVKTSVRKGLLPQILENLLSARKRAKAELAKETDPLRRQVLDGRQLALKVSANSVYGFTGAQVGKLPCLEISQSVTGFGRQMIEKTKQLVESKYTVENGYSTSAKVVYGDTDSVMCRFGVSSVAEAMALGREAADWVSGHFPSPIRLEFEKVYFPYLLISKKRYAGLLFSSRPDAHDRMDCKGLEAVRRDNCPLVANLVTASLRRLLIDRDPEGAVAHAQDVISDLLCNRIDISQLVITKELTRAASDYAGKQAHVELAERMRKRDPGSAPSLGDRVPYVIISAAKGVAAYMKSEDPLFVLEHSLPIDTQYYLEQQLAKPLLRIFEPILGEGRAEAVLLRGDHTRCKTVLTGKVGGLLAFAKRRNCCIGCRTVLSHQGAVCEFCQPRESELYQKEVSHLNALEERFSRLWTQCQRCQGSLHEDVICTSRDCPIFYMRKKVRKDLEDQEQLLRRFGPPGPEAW
UniProt P0DPB6, whole entry, looked up: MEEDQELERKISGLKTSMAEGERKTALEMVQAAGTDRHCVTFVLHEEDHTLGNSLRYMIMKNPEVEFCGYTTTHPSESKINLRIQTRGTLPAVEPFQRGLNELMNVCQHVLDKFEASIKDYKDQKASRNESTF
UniProt Q9GZS1, whole entry, looked up: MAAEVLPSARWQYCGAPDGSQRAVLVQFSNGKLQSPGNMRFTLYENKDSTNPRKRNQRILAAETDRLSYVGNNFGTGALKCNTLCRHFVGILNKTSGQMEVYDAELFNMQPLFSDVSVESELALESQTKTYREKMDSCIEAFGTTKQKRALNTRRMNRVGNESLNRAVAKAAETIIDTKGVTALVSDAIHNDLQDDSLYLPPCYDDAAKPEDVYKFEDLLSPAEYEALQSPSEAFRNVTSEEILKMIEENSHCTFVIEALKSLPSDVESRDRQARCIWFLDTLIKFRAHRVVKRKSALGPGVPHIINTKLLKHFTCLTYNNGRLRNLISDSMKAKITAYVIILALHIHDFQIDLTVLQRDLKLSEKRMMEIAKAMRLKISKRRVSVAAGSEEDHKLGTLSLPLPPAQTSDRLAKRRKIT
UniProt Q9NW08: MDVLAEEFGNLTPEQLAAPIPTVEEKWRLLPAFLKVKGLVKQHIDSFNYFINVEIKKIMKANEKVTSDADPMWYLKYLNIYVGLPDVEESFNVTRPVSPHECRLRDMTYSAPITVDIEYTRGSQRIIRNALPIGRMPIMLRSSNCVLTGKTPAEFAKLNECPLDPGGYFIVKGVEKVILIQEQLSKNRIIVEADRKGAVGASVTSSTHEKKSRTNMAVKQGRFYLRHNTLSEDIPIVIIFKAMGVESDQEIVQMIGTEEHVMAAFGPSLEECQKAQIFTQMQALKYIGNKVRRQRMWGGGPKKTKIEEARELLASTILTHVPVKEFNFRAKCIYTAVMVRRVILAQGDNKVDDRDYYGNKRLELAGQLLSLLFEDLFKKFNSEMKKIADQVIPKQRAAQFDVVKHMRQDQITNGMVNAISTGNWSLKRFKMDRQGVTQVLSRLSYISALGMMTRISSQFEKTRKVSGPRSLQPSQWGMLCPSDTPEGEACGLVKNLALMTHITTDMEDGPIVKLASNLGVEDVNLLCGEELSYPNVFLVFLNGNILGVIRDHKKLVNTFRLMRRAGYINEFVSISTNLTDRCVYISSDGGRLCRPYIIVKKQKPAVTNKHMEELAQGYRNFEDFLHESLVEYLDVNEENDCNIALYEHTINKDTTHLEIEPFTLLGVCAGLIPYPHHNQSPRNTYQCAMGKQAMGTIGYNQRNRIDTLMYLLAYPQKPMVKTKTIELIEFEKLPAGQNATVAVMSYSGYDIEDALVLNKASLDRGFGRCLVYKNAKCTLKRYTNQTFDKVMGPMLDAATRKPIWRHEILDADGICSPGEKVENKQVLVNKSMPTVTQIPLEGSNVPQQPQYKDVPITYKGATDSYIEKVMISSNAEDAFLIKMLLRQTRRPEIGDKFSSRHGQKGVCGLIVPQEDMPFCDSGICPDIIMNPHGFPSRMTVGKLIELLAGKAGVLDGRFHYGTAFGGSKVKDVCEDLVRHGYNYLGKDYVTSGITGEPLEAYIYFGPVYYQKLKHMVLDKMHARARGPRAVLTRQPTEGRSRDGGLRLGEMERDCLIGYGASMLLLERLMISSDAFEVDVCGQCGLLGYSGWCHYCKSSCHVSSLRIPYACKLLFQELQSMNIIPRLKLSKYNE
UniProt Q08752, whole entry, looked up: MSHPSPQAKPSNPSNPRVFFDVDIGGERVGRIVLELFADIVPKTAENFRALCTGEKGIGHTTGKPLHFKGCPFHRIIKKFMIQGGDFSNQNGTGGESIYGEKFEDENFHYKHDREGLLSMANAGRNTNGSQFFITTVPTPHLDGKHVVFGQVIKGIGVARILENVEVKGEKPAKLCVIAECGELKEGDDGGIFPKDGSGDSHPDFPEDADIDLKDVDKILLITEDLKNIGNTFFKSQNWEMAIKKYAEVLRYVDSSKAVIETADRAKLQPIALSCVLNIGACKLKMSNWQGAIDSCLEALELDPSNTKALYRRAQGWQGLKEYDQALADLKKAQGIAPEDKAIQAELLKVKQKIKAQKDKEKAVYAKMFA
UniProt Q9NUX5: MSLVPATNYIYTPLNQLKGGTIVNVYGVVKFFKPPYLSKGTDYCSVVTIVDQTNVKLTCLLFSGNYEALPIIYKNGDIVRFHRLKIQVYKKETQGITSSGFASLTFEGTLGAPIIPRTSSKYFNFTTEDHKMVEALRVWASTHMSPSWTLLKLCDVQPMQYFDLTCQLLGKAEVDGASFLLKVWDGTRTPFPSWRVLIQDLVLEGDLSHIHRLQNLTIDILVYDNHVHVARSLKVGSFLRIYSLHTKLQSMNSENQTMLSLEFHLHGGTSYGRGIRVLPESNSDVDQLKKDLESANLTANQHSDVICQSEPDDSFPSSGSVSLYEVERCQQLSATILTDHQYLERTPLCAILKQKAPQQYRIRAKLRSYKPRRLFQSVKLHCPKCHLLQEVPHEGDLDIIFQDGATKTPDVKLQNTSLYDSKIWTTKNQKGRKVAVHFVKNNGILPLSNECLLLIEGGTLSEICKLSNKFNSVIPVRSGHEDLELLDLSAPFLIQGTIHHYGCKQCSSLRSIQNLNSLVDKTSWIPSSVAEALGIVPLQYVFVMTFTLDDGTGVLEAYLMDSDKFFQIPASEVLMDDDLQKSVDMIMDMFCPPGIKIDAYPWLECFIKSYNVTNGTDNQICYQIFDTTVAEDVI
UniProt Q13427: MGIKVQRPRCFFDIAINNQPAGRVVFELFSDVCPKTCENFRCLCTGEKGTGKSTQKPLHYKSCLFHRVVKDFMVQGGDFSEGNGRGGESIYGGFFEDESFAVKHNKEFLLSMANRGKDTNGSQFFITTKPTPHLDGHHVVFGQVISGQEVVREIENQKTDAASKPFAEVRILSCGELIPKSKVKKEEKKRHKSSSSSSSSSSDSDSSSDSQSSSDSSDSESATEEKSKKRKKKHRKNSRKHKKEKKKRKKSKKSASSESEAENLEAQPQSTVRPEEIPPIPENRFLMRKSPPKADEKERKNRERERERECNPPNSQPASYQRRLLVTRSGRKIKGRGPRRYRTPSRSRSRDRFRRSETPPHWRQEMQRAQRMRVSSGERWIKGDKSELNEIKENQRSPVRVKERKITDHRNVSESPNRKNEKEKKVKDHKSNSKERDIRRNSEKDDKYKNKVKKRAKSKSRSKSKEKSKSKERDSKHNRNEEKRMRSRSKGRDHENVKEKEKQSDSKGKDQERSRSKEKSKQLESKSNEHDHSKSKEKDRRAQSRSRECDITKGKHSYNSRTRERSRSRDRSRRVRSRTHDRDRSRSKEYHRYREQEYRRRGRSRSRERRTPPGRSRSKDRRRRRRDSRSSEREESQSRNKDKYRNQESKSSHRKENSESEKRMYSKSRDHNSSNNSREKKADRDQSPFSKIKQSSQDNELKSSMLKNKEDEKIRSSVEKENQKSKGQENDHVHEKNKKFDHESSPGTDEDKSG

The list shows a part of the results.
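Note: competitive chemoproteomic profiling in live THP-1 cells with an iodoacetamide desthiobiotin (IA-DTB) probe, comparing probe-labelled peptide intensities in compound-treated cells against DMSO-treated controls.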

In the case of “POLR2K_P53803_19+22_QQPMIYICGECHTENEIK (UniProt P53803)”, the “probe-labelled cysteine peptide fold change” value was -0.124 (10 µM) and -0.215 (50 µM).

As to “POP1_Q99575_270+283_ALSGMCNIDTGLTFAAVHCLSGK (UniProt Q99575)”, the “probe-labelled cysteine peptide fold change” value reads like this: (10 µM) -0.0348; (50 µM) 0.0349.

With “POLD2_P49005_91_CCVVGTLFK (UniProt P49005)”, the “probe-labelled cysteine peptide fold change” value was -0.0797 (10 µM) and -0.113 (50 µM).

Take “POR_P16435_445_HILAILQDCPSLRPPIDHLCELLPR (UniProt P16435)”: the “probe-labelled cysteine peptide fold change” value was 0.0279 (10 µM) and -0.0712 (50 µM).

Consider “POGLUT1_Q8NBL1_108_CSGVEHFILEVIGR (UniProt Q8NBL1)”, for which the “probe-labelled cysteine peptide fold change” value came to 0.0531 (10 µM) and 0.0525 (50 µM).

As to “PNPT1_Q8TCS8_395_GQTQVLCTVTFDSLESGIK (UniProt Q8TCS8)”, the “probe-labelled cysteine peptide fold change” value runs as follows: (10 µM) 0.23; (50 µM) 0.458.

In the case of “PPIE_Q9UNP9_198_IIPQFMCQGGDFTNHNGTGGK (UniProt Q9UNP9)”, the “probe-labelled cysteine peptide fold change” value was -0.0102 (10 µM) and -0.136 (50 µM).

Consider “POLR2A_P24928_981_VVLPCNLLR (UniProt P24928)”, for which the “probe-labelled cysteine peptide fold change” value was -0.146 (10 µM) and 0.143 (50 µM).

With “POLD1_P28340_512_LAVYCLK (UniProt P28340)”, the “probe-labelled cysteine peptide fold change” value (10 µM) came out at 0.146 and the “probe-labelled cysteine peptide fold change” value (50 µM) came out at 0.296.

“POLD2_P49005_438_IIRGPEDQTVLLVTVPDFSATQTACLVNLR (UniProt P49005)”: the “probe-labelled cysteine peptide fold change” value runs as follows: (10 µM) -0.105; (50 µM) -0.431.

Consider “POLR1D_P0DPB6_107_GLNELMNVCQHVLDK (UniProt P0DPB6)”, for which the “probe-labelled cysteine peptide fold change” value (10 µM) is -0.0767 and the “probe-labelled cysteine peptide fold change” value (50 µM) was -0.0948.

Regarding “POLR1E_Q9GZS1_138_MDSCIEAFGTTK (UniProt Q9GZS1)”, the “probe-labelled cysteine peptide fold change” value runs as follows: (10 µM) -0.0838; (50 µM) -0.267.

Turning to “POLR3B_Q9NW08_593_LCRPYIIVK (UniProt Q9NW08)”, the “probe-labelled cysteine peptide fold change” value stood at 0.0353 (10 µM) and 0.144 (50 µM).

Consider “POLA1_P09884_497_GPCWLEVK (UniProt P09884)”, for which the “probe-labelled cysteine peptide fold change” value was -0.00228 (10 µM) and 0.056 (50 µM).

In the case of PPID_Q08752_71_GCPFHR (UniProt Q08752), the “probe-labelled cysteine peptide fold change” value runs as follows: (10 µM) -0.0219; (50 µM) -0.209.

On to “POLR2A_P24928_1245_INAGFGDDLNCIFNDDNAEK (UniProt P24928)”, for which the “probe-labelled cysteine peptide fold change” value reads like this: (10 µM) -0.0191; (50 µM) 0.0423.

Regarding “POT1_Q9NUX5_329_CQQLSATILTDHQYLER (UniProt Q9NUX5)”, the “probe-labelled cysteine peptide fold change” value is 0.294 (10 µM) and -0.0091 (50 µM).

Take “POFUT1_Q9H488_249_NACAMLK (UniProt Q9H488)”: the “probe-labelled cysteine peptide fold change” value runs as follows: (10 µM) -0.122; (50 µM) -0.133.

Consider “POGZ_Q7Z3K3_547_QFSTPFQLQCHLENVHSPYESTTK (UniProt Q7Z3K3)”, for which the “probe-labelled cysteine peptide fold change” value is, setting by setting: (10 µM) 0.157; (50 µM) -0.00261.

For “POLD1_P28340_319_VLSFDIECAGR (UniProt P28340)”, the “probe-labelled cysteine peptide fold change” value is -0.0256 (10 µM) and 0.0359 (50 µM).

For “POT1_Q9NUX5_503_SGHEDLELLDLSAPFLIQGTIHHYGCK (UniProt Q9NUX5)”, the “probe-labelled cysteine peptide fold change” value (10 µM) came out at 0.0674 and the “probe-labelled cysteine peptide fold change” value (50 µM) turned out to be 0.231.

With “PPIG_Q13427_310_ERECNPPNSQPASYQR (UniProt Q13427)”, the “probe-labelled cysteine peptide fold change” value is -0.151 (10 µM) and -0.155 (50 µM).

These data come from the supplement of paper PMC12067093, “Discovery and optimisation of a covalent ligand for TRIM25 and its application to targeted protein ubiquitination” (Chemical Science, 2025).
